Results on one substance are retold here after paper doi:10.1101/2024.09.03.611104.

The chains behind the UniProt entries cited, without tags or fusion partners.
UniProt P32121: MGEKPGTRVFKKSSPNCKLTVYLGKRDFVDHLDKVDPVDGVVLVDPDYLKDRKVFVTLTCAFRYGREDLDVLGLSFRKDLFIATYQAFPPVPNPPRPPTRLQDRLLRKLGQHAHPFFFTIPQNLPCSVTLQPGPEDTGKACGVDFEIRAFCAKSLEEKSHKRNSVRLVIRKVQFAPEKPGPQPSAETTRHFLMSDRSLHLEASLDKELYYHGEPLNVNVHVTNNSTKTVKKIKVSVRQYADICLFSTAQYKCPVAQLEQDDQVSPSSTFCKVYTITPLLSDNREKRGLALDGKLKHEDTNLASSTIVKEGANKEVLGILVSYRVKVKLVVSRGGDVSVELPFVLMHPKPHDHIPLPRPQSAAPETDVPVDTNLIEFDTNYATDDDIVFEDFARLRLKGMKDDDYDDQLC

For the experiment, the target named is T1, GFP-tagged LPA3 receptor (UniProt Q9UBY5).
T1 sequence: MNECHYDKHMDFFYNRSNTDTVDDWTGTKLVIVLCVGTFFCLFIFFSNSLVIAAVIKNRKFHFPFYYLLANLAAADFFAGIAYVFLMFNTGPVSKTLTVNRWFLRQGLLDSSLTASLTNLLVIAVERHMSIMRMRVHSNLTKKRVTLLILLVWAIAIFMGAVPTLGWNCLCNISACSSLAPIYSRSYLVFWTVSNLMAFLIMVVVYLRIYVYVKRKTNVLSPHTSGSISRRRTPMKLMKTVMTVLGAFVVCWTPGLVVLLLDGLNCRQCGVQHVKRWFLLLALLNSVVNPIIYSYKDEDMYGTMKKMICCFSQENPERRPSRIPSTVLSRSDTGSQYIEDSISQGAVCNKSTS
Nature of the experiment: FRET or BRET. (Bioluminescence resonance energy transfer reports proximity on the nanometre scale.)

These are yes or no findings as the source states them, for the method shown. Binding seen in cells or lysates may run through a third protein. Some entries that bind do so weakly or less than the wild type. Where a sequence is shown, tags or fusion partners need not be part of it.

For the substance “mCherry-tagged β-arrestin 2 (from UniProt P32121 1-409)”, the binding entry is “binds”.
